Test results taken from PubChem BioAssay AID222 (DTP/NCI, 2004).
The list does not hold the whole screen: it is rich in T/C values a quarter to a half above the control, in often repeated tests (any T/C) and in doses without a T/C. Further doses and runs are listed elsewhere. T/C: endpoint of the treated group in % of that of the vehicle group. Some doses have a count of surviving animals in place of a T/C: the source files T/C as zero there, which appears to mark a toxic dose or a test without result, not a measured value. Some doses without a T/C left all or most animals alive at the check, yet need not have been tolerated: survival well below the control is almost never listed, so the zero probably covers shortened survival too. Survivors were counted at the toxicity check, usually on the fifth day, unless a day is given; later deaths do not show. Schedule codes are those of the source, taken here to give the interval after Q, in days (D) or hours (H), and the number of doses after X. Some doses were run more than once; their values stand side by side, smallest first. Where survival is the endpoint, the PubChem record calls one and a half times the control and up active, and a quarter to a half above the control has no call in these data; cut-offs in other NCI protocols can differ. Additions like (4×) say how often a value occurs here. Some T/C values are followed by the survivors on the day toxicity was checked, most often the fifth; without a count, all were alive then. Some schedule codes hold Z or #, which are not explained here.

Test system: C57BL/6 mice, intracerebral ependymoblastoma, median survival T/C
Test: NCI In Vivo Anticancer Drug Screen. Data for tumor model Ependymoblastoma (intracerebral) in C57BL/6 mice
Conditions: T/C endpoint: median survival time, higher T/C = longer survival
Experimental: The antitumor activity of compounds was measured in mice bearing transplantable tumors. Survival or tumor size were measured and the results are expressed as the measurement made in the treated group (T) divided by the measurement made in the vehicle treated control group (C). The tumor model used in this assay is Ependymoblastoma (intracerebral) in C57BL/6 mice

[1] = dose: 8.0 mg/kg/injection, schedule: Q01DX005 (ip), vehicle: saline
[2] = dose: 20.0 mg/kg/injection, schedule: Q07DX003 (ip), vehicle: suspension in saline
[3] = dose: 50.0 mg/kg/injection, schedule: Q01DX005 (ip), vehicle: saline
[4] = dose: 200.0 mg/kg/injection, schedule: Q01DX005 (ip), vehicle: saline
[5] = dose: 25.0 mg/kg/injection, schedule: Q01DX001 (ip), vehicle: water

O=NN(CCCl)C(=O)NC1CCC(=O)NC1=O (stereo unspecified)
T/C (dose: 0.5 mg/kg/injection, schedule: Q01DX005 (ip), vehicle: saline): 105, 112, 116, 126 % of control
T/C (dose: 1.0 mg/kg/injection, schedule: Q01DX005 (ip), vehicle: saline): 122, 137, 142 % of control (2×)
T/C (dose: 2.0 mg/kg/injection, schedule: Q01DX005 (ip), vehicle: Klucel (hydroxypropylcellulose) (HPC)): 134 % of control
T/C (dose: 2.0 mg/kg/injection, schedule: Q01DX005 (ip), vehicle: saline): 155, 196, 208, 250 % of control
T/C (dose: 2.0 mg/kg/injection, schedule: Q01DX005 (ip), vehicle: suspension in saline): 147 % of control [9 of 10 alive]
T/C (dose: 4.0 mg/kg/injection, schedule: Q01DX001 (ip), vehicle: saline): 96 [2 of 10 alive], 106 [6 of 10 alive], 111, 123 % of control
T/C (dose: 4.0 mg/kg/injection, schedule: Q01DX005 (ip), vehicle: saline): 108, 189, 305, 320 % of control
T/C (dose: 4.0 mg/kg/injection, schedule: Q01DX005 (oral), vehicle: Klucel (hydroxypropylcellulose) (HPC)): 142 % of control
survivor count (dose: 7.0 mg/kg/injection, schedule: Q01DX001 (ip), vehicle: saline with Tween-80): 3 of 10
T/C (dose: 8.0 mg/kg/injection, schedule: Q01DX001 (ip), vehicle: saline): 107 [7 of 10 alive], 109 [5 of 10 alive], 127, 140 % of control
T/C [1]: 89 and 108 % of control
survivor count [1]: 10 of 10
survivor count (dose: 8.0 mg/kg/injection, schedule: Q01DX005 (ip), vehicle: suspension in saline): 10 of 10
survivor count (dose: 8.0 mg/kg/injection, schedule: Q01DX005 (oral), vehicle: Klucel (hydroxypropylcellulose) (HPC)): 10 of 10
T/C (dose: 8.0 mg/kg/injection, schedule: Q#A X002 (ip), vehicle: saline): 147 % of control [7 of 10 alive]
T/C (dose: 10.0 mg/kg/injection, schedule: Q07DX003 (ip), vehicle: saline): 127 % of control
T/C (dose: 10.0 mg/kg/injection, schedule: Q07DX003 (ip), vehicle: suspension in saline): 133, 159, 176, 211, 226 % of control
T/C (dose: 16.0 mg/kg/injection, schedule: Q01DX001 (ip), vehicle: saline): 96 [3 of 10 alive], 105 [4 of 10 alive], 138, 207 % of control
survivor count (dose: 16.0 mg/kg/injection, schedule: Q01DX005 (ip), vehicle: Klucel (hydroxypropylcellulose) (HPC)): 10 of 10
survivor count (dose: 16.0 mg/kg/injection, schedule: Q01DX005 (ip), vehicle: saline): 10 of 10
survivor count (dose: 16.0 mg/kg/injection, schedule: Q01DX005 (ip), vehicle: suspension in saline): 10 of 10
survivor count (dose: 16.0 mg/kg/injection, schedule: Q01DX005 (oral), vehicle: Klucel (hydroxypropylcellulose) (HPC)): 9 of 10
survivor count (dose: 20.0 mg/kg/injection, schedule: Q07DX003 (ip), vehicle: saline): 8 of 10
T/C [2]: 90, 95, 135 % of control
survivor count [2]: 7 of 10 and 10 of 10
T/C (dose: 32.0 mg/kg/injection, schedule: Q01DX001 (ip), vehicle: saline): 104 [3 of 10 alive], 112 [8 of 10 alive], 133, 165 % of control
survivor count (dose: 32.0 mg/kg/injection, schedule: Q01DX005 (oral), vehicle: Klucel (hydroxypropylcellulose) (HPC)): 3 of 10
T/C (dose: 32.0 mg/kg/injection, schedule: Q#A X002 (ip), vehicle: saline): 127 % of control [6 of 10 alive]
survivor count (dose: 40.0 mg/kg/injection, schedule: Q01DX001 (oral), vehicle: other): 5 of 6
T/C (dose: 64.0 mg/kg/injection, schedule: Q01DX001 (ip), vehicle: saline): 102 [1 of 10 alive], 102 [5 of 10 alive], 105 [8 of 10 alive], 244 % of control
survivor count (dose: 64.0 mg/kg/injection, schedule: Q01DX005 (oral), vehicle: Klucel (hydroxypropylcellulose) (HPC)): 1 of 10
survivor count (dose: 80.0 mg/kg/injection, schedule: Q01DX001 (oral), vehicle: other): 1 of 6

CNc1nc(N(C)C)nc(N(C)C)n1
survivor count (dose: 12.5 mg/kg/injection, schedule: Q01DX005 (ip), vehicle: saline): 6 of 10
survivor count (dose: 25.0 mg/kg/injection, schedule: Q01DX005 (ip), vehicle: saline): 8 of 10
survivor count [3]: 9 of 10
survivor count [4]: 7 of 10

ClC(Cl)=C(Cl)Cl
survivor count (dose: 180.0 mg/kg/injection, schedule: Q01DX005 (ip), vehicle: saline with Tween-80): 0 of 10 and 2 of 10
survivor count (dose: 360.0 mg/kg/injection, schedule: Q01DX005 (ip), vehicle: saline with Tween-80): 0 of 10
survivor count (dose: 720.0 mg/kg/injection, schedule: Q01DX005 (ip), vehicle: saline with Tween-80): 0 of 10
survivor count (dose: 1444.0 mg/kg/injection, schedule: Q01DX005 (ip), vehicle: saline with Tween-80): 0 of 10

CC/C(=C(/CC)c1ccc(O)cc1)c1ccc(O)cc1
survivor count (dose: 128.0 mg/kg/injection, schedule: Q01DX005 (ip), vehicle: saline with Tween-80): 10 of 10
survivor count (dose: 128.0 mg/kg/injection, schedule: Q01DX005 (ip), vehicle: saline): 10 of 10
survivor count (dose: 256.0 mg/kg/injection, schedule: Q01DX005 (ip), vehicle: saline): 9 of 10
survivor count (dose: 512.0 mg/kg/injection, schedule: Q01DX005 (ip), vehicle: saline): 10 of 10

O=C(N/N=C\c1cc(Br)cc(Br)c1O)N/N=C/c1cc(Br)cc(Br)c1O
survivor count (dose: 512.0 mg/kg/injection, schedule: Q01DX005 (ip), vehicle: saline with Tween-80): 6 of 10

O=P1(NCCCl)OCCCN1CCCl (stereo unspecified)
T/C [5]: 135 % of control
survivor count [5]: 8 of 9
T/C (dose: 50.0 mg/kg/injection, schedule: Q01DX001 (ip), vehicle: water): 129 % of control
T/C [3]: 127 % of control
T/C (dose: 50.0 mg/kg/injection, schedule: Q01DX005 (ip), vehicle: water): 136 % of control
T/C (dose: 100.0 mg/kg/injection, schedule: Q01DX001 (ip), vehicle: water): 135 % of control [9 of 10 alive]
T/C (dose: 100.0 mg/kg/injection, schedule: Q01DX005 (ip), vehicle: saline): 141 % of control [7 of 8 alive]
T/C (dose: 200.0 mg/kg/injection, schedule: Q01DX001 (ip), vehicle: water): 146 % of control
T/C [4]: 146 % of control
survivor count (dose: 200.0 mg/kg/injection, schedule: Q01DX005 (ip), vehicle: water): 10 of 10
survivor count (dose: 400.0 mg/kg/injection, schedule: Q01DX005 (ip), vehicle: water): 8 of 10 and 9 of 10
